These are yes or no findings as the source states them, for the method shown. Binding seen in cells or lysates may run through a third protein.
Biological target: CD63-FTS (human) (UniProt P08962)
Assay: pull-down; Strep-Tactin pulldown from extracts of WT HeLa cells transfected with FTS-tagged bait; 20 mM HEPES, 200 mM NaCl, 1 mM DTT, 1% DDM; overnight at 4 °C; immunoblotting

By UniProt entry, the sequences of proteins in these tests, tags left out.
UniProt P08962: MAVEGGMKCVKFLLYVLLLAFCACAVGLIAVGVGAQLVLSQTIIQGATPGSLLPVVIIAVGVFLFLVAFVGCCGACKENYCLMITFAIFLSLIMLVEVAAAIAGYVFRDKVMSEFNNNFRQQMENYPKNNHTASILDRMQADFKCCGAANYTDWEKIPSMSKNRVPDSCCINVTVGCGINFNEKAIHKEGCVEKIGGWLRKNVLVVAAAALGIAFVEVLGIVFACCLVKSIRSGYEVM

binding: no binding
B1: ATG9A (endogenous) (protein, UniProt Q7Z3C6 1-839)
chain: MAQFDTEYQRLEASYSDSPPGEEDLLVHVAEGSKSPWHHIENLDLFFSRVYNLHQKNGFTCMLIGEIFELMQFLFVVAFTTFLVSCVDYDILFANKMVNHSLHPTEPVKVTLPDAFLPAQVCSARIQENGSLITILVIAGVFWIHRLIKFIYNICCYWEIHSFYLHALRIPMSALPYCTWQEVQARIVQTQKEHQICIHKRELTELDIYHRILRFQNYMVALVNKSLLPLRFRLPGLGEAVFFTRGLKYNFELILFWGPGSLFLNEWSLKAEYKRGGQRLELAQRLSNRILWIGIANFLLCPLILIWQILYAFFSYAEVLKREPGALGARCWSLYGRCYLRHFNELEHELQSRLNRGYKPASKYMNCFLSPLLTLLAKNGAFFAGSILAVLIALTIYDEDVLAVEHVLTTVTLLGVTVTVCRSFIPDQHMVFCPEQLLRVILAHIHYMPDHWQGNAHRSQTRDEFAQLFQYKAVFILEELLSPIVTPLILIFCLRPRALEIIDFFRNFTVEVVGVGDTCSFAQMDVRQHGHPQWLSAGQTEASVYQQAEDGKTELSLMHFAITNPGWQPPRESTAFLGFLKEQVQRDGAAASLAQGGLLPENALFTSIQSLQSESEPLSLIANVVAGSSCRGPPLPRDLQGSRHRAEVASALRSFSPLQPGQAPTGRAHSTMTGSGVDARTASSGSSVWEGQLQSLVLSEYASTEMSLHALYMHQLHKQQAQAEPERHVWHRRESDESGESAPDEGGEGARAPQSIPRSASYPCAAPRPGAPETTALHGGFQRRYGGITDPGTVPRVPSHFSRLPLGGWAEDGQSASRHPEPVPEEGSEDELPPQVHKV
